This note sets out measurements from patent US10035814B2, “Guanine analogs as telomerase substrates and telomere length affectors” (Geron Corporation, priority 2011, dated 2018).

By UniProt entry, the sequences of proteins in these tests, tags left out.
UniProt O14746, whole entry: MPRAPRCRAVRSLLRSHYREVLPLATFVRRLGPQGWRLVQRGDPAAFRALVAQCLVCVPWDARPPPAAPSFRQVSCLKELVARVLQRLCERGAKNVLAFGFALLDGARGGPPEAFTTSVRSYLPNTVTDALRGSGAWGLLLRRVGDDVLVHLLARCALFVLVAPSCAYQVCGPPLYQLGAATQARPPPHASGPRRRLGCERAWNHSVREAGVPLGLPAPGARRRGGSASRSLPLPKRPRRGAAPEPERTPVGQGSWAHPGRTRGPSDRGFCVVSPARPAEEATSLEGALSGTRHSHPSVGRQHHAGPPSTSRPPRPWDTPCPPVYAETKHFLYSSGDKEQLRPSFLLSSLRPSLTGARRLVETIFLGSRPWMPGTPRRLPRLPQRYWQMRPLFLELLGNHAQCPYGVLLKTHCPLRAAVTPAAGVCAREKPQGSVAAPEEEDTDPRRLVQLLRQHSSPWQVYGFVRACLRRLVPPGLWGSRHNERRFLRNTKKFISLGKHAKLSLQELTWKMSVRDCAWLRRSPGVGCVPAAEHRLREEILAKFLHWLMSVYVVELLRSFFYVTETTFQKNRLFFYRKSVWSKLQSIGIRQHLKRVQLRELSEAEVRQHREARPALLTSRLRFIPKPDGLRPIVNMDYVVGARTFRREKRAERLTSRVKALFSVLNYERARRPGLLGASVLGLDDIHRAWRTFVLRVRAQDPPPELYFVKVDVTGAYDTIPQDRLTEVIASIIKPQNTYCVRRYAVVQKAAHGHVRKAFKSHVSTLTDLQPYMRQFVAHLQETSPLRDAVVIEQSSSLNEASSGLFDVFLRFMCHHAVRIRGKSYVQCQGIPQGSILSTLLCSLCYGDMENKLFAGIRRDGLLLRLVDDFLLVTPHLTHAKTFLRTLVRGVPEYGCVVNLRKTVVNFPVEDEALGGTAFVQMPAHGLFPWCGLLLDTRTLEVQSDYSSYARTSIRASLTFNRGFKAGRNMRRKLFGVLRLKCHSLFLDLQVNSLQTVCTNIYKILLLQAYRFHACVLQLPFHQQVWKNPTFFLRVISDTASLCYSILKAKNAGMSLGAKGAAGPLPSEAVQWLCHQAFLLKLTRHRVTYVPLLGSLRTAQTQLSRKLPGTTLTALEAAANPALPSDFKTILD
UniProt Q9BUR4, whole entry partner: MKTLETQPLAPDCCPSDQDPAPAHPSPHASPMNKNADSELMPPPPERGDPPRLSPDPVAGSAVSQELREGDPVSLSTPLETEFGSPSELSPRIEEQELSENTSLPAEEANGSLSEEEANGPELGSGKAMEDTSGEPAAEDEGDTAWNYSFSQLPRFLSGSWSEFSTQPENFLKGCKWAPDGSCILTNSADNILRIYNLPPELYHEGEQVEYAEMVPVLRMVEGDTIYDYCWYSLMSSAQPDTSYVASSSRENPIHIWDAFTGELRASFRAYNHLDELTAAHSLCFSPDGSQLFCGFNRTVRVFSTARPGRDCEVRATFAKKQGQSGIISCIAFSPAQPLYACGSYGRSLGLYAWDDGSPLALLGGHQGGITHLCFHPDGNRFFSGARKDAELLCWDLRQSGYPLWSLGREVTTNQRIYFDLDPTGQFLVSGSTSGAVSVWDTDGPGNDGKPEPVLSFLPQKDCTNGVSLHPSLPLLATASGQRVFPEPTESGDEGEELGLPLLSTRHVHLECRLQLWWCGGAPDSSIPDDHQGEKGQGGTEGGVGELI
UniProt Q9NPE3, whole entry partner: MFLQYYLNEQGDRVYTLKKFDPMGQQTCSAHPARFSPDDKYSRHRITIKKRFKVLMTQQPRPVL
UniProt O60832, whole entry partner: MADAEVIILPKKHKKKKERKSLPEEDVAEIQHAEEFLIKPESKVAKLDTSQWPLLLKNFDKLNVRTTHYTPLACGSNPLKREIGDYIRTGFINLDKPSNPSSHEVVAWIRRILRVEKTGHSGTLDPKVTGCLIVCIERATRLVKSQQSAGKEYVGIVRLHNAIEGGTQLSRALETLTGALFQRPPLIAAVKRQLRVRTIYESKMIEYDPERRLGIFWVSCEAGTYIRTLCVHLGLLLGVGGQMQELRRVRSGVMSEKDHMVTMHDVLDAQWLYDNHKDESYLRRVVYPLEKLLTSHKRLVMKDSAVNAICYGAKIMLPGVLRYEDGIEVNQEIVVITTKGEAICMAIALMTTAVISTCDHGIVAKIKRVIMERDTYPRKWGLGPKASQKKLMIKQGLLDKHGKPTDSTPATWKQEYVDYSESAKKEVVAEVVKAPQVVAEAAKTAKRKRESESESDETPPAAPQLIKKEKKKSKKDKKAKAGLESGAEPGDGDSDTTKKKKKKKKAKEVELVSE
UniProt Q9NY12, whole entry partner: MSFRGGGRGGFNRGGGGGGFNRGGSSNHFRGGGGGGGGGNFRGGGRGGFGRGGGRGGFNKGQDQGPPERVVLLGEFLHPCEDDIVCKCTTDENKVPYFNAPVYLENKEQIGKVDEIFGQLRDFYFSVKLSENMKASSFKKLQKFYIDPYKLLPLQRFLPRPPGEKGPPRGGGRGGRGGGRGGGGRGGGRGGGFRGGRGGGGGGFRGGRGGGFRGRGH
UniProt Q9NX24, whole entry partner: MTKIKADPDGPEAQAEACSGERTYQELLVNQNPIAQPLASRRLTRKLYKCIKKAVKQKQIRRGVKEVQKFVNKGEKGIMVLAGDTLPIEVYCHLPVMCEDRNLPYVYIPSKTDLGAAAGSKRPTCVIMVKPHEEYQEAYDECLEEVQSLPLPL

This experiment deals with telomerase in HT3 cells (Homo sapiens (Human), UniProt O14746). Briefly: Ex vivo TRAP assay in HT3 cells. Conditions: read-out: ExVivo TRAP EC50 (μM)- 3 Day Assay, 3 days. Here is the method: Telomerase inhibition is observed in cells following the addition of the prodrugs (R)-PMPG-diisopropyloxy ester or (S)-PMPG-diisopropyloxy ester. HT3 cells were treated for three days with increasing concentrations of PMPG-diisopropyloxy ester ranging from 0.2 μM to 20 μM. Cells (HT3 RPMI+10% PBS) were incubated with compound for 24 hr after which PSTS primer (phosphorothioate-d(AATCCGTCGAGCAGAGTT (SEQ ID NO: 6) containing a 5′ Cy-5 label) (7.5 μM) and fresh compound are added for an additional 24 hr. Cells were lysed and endogenous telomerase inactivated by heating (15 min, 75° C.). Products were amplified by 30 cycles of PCR under TRAP conditions set forth above and quantified. The results of two independent experiments are shown in Table 4.
HT3 cells were treated for three days with increasing concentrations of one or more of the indicated compounds ranging from 0.2 μM to 20 μM. Cells (HT3 RPMI+10% FBS) were incubated with compound for 24 hours, after which PSTS primer (phosphorothioate-d AATCCGTCGAGCAGAGTT (SEQ ID NO: 6) containing a 5′ Cy-5 label) (7.5 μM) and fresh compound were added for an additional 24 hours. […] Products were amplified by 30 cycles of PCR under TRAP conditions set forth in Kim et al., Science 266:2011, […] (which reference is incorporated herein in its entirety) and quantified.

Molecules are shown by their SMILES. Some entries of the source have several records that differ or are many. They are shown here; other results are not. An entry can have further records. The values listed for one entry seem to repeat one measurement (runs, samples, wells or individuals).

In general, EC50 refers to the concentration that produces a half-maximal response. Regarding `C=C(COCP(=O)(OCOC(=O)OC(C)C)OCOC(=O)OC(C)C)Cn1cnc2c(=O)[nH]c(N)nc21`, the EC50 was 3.9 µM and 17.8 µM.
